{
  "source": "paper PMC11994402",
  "biological_target": "T1, OTU deubiquitinase 5 (human (endogenous in HPMECs)) (UniProt Q96G74)",
  "T1 sequence": "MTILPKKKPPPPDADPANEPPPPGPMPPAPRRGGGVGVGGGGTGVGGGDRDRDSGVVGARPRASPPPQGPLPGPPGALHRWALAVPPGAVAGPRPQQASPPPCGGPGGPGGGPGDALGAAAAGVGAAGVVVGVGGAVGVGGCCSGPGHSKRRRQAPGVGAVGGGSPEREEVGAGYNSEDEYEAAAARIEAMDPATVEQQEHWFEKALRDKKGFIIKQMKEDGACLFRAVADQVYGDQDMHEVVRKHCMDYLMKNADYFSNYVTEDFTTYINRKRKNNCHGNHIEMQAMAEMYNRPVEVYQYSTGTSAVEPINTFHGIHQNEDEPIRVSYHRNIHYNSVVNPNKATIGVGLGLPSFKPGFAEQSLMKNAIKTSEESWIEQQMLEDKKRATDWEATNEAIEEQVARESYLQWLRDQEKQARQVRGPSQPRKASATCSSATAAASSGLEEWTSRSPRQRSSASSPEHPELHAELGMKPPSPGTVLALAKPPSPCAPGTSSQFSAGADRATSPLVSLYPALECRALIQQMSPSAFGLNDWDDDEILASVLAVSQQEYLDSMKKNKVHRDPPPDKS",
  "assay": "co-IP; HPMECs co-cultured with SMφ-EVs; lysate; also done with or without Plantainoside D (PD) treatment (Fig. 8E, F; Fig. 9H)",
  "note": "No constants are given. Whether binding was seen depends on the method and setting. Binding seen in cells or lysates may run through a third protein. Some binding calls cover weakened binding; strength is not graded here.",
  "data": [
    {"binder": "guanylate-binding protein 2 (protein, UniProt P32456 1-591) MAPEINLPGPMSLIDNTKGQLVVNPEALKILSAITQPVVVVAIVGLYRTGKSYLMNKLAGKKNGFSLGSTVKSHTKGIWMWCVPHPKKPEHTLVLLDTEGLGDIEKGDNENDSWIFALAILLSSTFVYNSMGTINQQAMDQLHYVTELTDRIKANSSPGNNSVDDSADFVSFFPAFVWTLRDFTLELEVDGEPITADDYLELSLKLRKGTDKKSKSFNDPRLCIRKFFPKRKCFVFDWPAPKKYLAHLEQLKEEELNPDFIEQVAEFCSYILSHSNVKTLSGGIPVNGPRLESLVLTYVNAISSGDLPCMENAVLALAQIENSAAVEKAIAHYEQQMGQKVQLPTETLQELLDLHRDSEREAIEVFMKNSFKDVDQMFQRKLGAQLEARRDDFCKQNSKASSDCCMALLQDIFGPLEEDVKQGTFSKPGGYRLFTQKLQELKNKYYQVPRKGIQAKEVLKKYLESKEDVADALLQTDQSLSEKEKAIEVERIKAESAEAAKKMLEEIQKKNEEMMEQKEKSYQEHVKQLTEKMERDRAQLMAEQEKTLALKLQEQERLLKEGFENESKRLQKDIWDIQMRSKSLEPICNIL", "values": [
      {"measurement": "binding", "value": "binds"}
    ]}
  ]
}
